Drawing on publication PMC4636238, this text covers binding for 14 molecules.

Results are given in words; binding and its absence hold for the method and conditions named. In cells and extracts the contact can be indirect. These calls come from enrichment with a bait or labelling near it, and not all partners need be listed. Where a sequence is shown, tags or fusion partners need not be part of it.

The target in assay [1] is biotinylated histatin 5 (human) (UniProt P15516). Description: affinity purification with mass spectrometry; pull-down: biotinylated histatin 5 on immobilized streptavidin agarose beads; 300 ug lyophilized parotid saliva in pH 7.0 binding buffer, 4 h, 4°C; washed with PBS with 75 mM NaCl pH 5.0; eluted at pH 2.8; trypsin digestion, LC-ESI-MS/MS; only the target purified.
A further assay addresses histatin 5 (human) (UniProt P15516). Description: affinity purification with mass spectrometry; co-IP: synthetic histatin 5 held by mouse anti-histatin 3/5 monoclonal antibody on protein G magnetic beads; 300 ug pooled parotid saliva protein in PBS pH 7.5, 4°C, 24 h; washed with PBS; eluted with 2.5% acetic acid; in-solution or in-gel trypsin digestion, LC-ESI-MS/MS; only the target purified.

B1: Ubiquitin-conjugating enzyme E2, J2 (UBC6 homolog, yeast) (Fragment) (protein, UniProt Q8N2K1 1-259)
chain: MSSTSSKRAPTTATQRLKQDYLRIKKDPVPYICAEPLPSNILEWHYVVRGPEMTPYEGGYYHGKLIFPREFPFKPPSIYMITPNGRFKCNTRLCLSITDFHPDTWNPAWSVSTILTGLLSFMVEKGPTLGSIETSDFTKRQLAVQSLAFNLKDKVFCELFPEVVEEIKQKQKAQDELSSRPQTLPLPDVVPDGETHLVQNGIQLLNGHAPGAVPNLAGLQQANRHHGLLGGALANLFVIVGFAAFAYTVKYVLRSIAQE
Regarding B1, the binding result (in assay [1]; with histatin 5 (human)) was “binds” throughout.
With DSSEEKFLRRIGRFGYGYGPYQPVPEQPLYPQPYQPQYQQYTF (peptide, UniProt P02808 20-62) [Statherin], the binding result (in assay [1]; with histatin 5 (human)) was “binds” throughout.

B2: Alpha-amylase 1 (enzyme, UniProt P0DUB6 16-511)
chain: QYSSNTQQGRTSIVHLFEWRWVDIALECERYLAPKGFGGVQVSPPNENVAIHNPFRPWWERYQPVSYKLCTRSGNEDEFRNMVTRCNNVGVRIYVDAVINHMCGNAVSAGTSSTCGSYFNPGSRDFPAVPYSGWDFNDGKCKTGSGDIENYNDATQVRDCRLSGLLDLALGKDYVRSKIAEYMNHLIDIGVAGFRIDASKHMWPGDIKAILDKLHNLNSNWFPEGSKPFIYQEVIDLGGEPIKSSDYFGNGRVTEFKYGAKLGTVIRKWNGEKMSYLKNWGEGWGFMPSDRALVFVDNHDNQRGHGAGGASILTFWDARLYKMAVGFMLAHPYGFTRVMSSYRWPRYFENGKDVNDWVGPPNDNGVTKEVTINPDTTCGNDWVCEHRWRQIRNMVNFRNVVDGQPFTNWYDNGSNQVAFGRGNRGFIVFNNDDWTFSLTLQTGLPAGTYCDVISGDKINGNCTGIKIYVSDDGKAHFSISNSAEDPFIAIHAESKL
For the molecule B2, the binding result (in assay [1]; in the assay with histatin 5 (human)) was “binds” each time.
Take DSHAKRHHGYKRKFHEKHHSHRGYRSNYLYDN (peptide, UniProt P15516 20-51) [Histatin-3]: the binding result (in assay [1]; with histatin 5 (human)) was “binds” each time.

B3: PIBF1 protein (protein, UniProt Q8WXW3 1-757)
chain: MSRKISKESKKVNISSSLESEDISLETTVPTDDISSSEEREGKVRITRQLIERKELLHNIQLLKIELSQKTMMIDNLKVDYLTKIEELEEKLNDALHQKQLLTLRLDNQLAFQQKDASKYQELMKQEMETILLRQKQLEETNLQLREKAGDVRRNLRDFELTEEQYIKLKAFPEDQLSIPEYVSVRFYELVNPLRKEICELQVKKNILAEELSTNKNQLKQLTETYEEDRKNYSEVQIRCQRLALELADTKQLIQQGDYRQENYDKVKSERDALEQEVIELRRKHEILEASHMIQTKERSELSKEVVTLEQTVTLLQKDKEYLNRQNMELSVRCAHEEDRLERLQAQLEESKKAREEMYEKYVASRDHYKTEYENKLHDELEQIRLKTNQEIDQLRNASREMYERENRNLREARDNAVAEKERAVMAEKDALEKHDQLLDRYRELQLSTESKVTEFLHQSKLKSFESERVQLLQEETARNLTQCQLECEKYQKKLEVLTKEFYSLQASSEKRITELQAQNSEHQARLDIYEKLEKELDEIIMQTAEIENEDEAERVLFSYGYGANVPTTAKRRLKQSVHLARRVLQLEKQNSLILKDLEHRKDQVTQLSQELDRANSLLNQTQQPYRYLIESVRQRDSKIDSLTESIAQLEKDVSNLNKEKSALLQTKNQMALDLEQLLNHREELAAMKQILVKMHSKHSENSLLLTKTEPKHVTENQKSKTLNVPKEHEDNIFTPKPTLFTKKEAPEWSKKQKMKT
Turning to B3, the binding entry (in assay [1]; with histatin 5 (human)) was “binds” in each case.

B4: Probable cation-transporting ATPase 13A2 (Fragment) (protein, UniProt Q9NQ11 1-1180)
chain: MSADSSPLVGSTPTGYGTLTIGTSIDPLSSSVSSVRLSGYCGSPWRVIGYHVVVWMMAGIPLLLFRWKPLWGVRLRLRPCNLAHAETLVIEIRDKEDSSWQLFTVQVQTEAIGEGSLEPSPQSQAEDGRSQAAVGAVPEGAWKDTAQLHKSEEAVSVGQKRVLRYYLFQGQRYIWIETQQAFYQVSLLDHGRSCDDVHRSRHGLSLQDQMVRKAIYGPNVISIPVKSYPQLLVDEALNPYYGFQAFSIALWLADHYYWYALCIFLISSISICLSLYKTRKQSQTLRDMVKLSMRVCVCRPGGEEEWVDSSELVPGDCLVLPQEGGLMPCDAALVAGECMVNESSLTGESIPVLKTALPEGLGPYCAETHRRHTLFCGTLILQARAYVGPHVLAVVTRTGFCTAKGGLVSSILHPRPINFKFYKHSMKFVAALSVLALLGTIYSIFILYRNRVPLNEIVIRALDLVTVVVPPALPAAMTVCTLYAQSRLRRQGIFCIHPLRINLGGKLQLVCFDKTGTLTEDGLDVMGVVPLKGQAFLPLVPEPRRLPVGPLLRALATCHALSRLQDTPVGDPMDLKMVESTGWVLEEEPAADSAFGTQVLAVMRPPLWEPQLQAMEEPPVPVSVLHRFPFSSALQRMSVVVAWPGATQPEAYVKGSPELVAGLCNPETVPTDFAQMLQSYTAAGYRVVALASKPLPTVPSLEAAQQLTRDTVEGDLSLLGLLVMRNLLKPQTTPVIQALRRTRIRAVMVTGDNLQTAVTVARGCGMVAPQEHLIIVHATHPERGQPASLEFLPMESPTAVNGVKDPDQAASYTVEPDPRSRHLALSGPTFGIIVKHFPKLLPKVLVQGTVFARMAPEQKTELVCELQKLQYCVGMCGDGANDCGALKAADVGISLSQAEASVVSPFTSSMASIECVPMVIREGRCSLDTSFSVFKYMALYSLTQFISVLILYTINTNLGDLQFLAIDLVITTTVAVLMSRTGPALVLGRVRPPGALLSVPVLSSLLLQMVLVTGVQLGGYFLTLAQPWFVPLNRTVAAPDNLPNYENTVVFSLSSFQYLILAAAVSKGAPFRRPLYTNVPFLVALALLSSVLVGLVLVPGLLQGPLALRNITDTGFKLLLLGLVTLNFVGAFMLESVLDQCLPACLRRLRPKRASKKRFKQLERELAEQPWPPLPAGPLR
In the case of B4, the binding entry (in assay [1]; with histatin 5 (human)) was “binds” throughout.

B5: Zinc finger CCCH domain-containing protein 3 (protein, UniProt Q8IXZ2 1-948)
chain: MEEKEILRRQIRLLQGLIDDYKTLHGNAPAPGTPAASGWQPPTYHSGRAFSARYPRPSRRGYSSHHGPSWRKKYSLVNRPPGPSDPPADHAVRPLHGARGGQPPVPQQHVLERQVQLSQGQNVVIKVKPPSKSGSASASGAQRGSLEEFEETPWSDQRPREGEGEPPRGQLQPSRPTRARGTCSVEDPLLVCQKEPGKPRMVKSVGSVGDSPREPRRTVSESVIAVKASFPSSALPPRTGVALGRKLGSHSVASCAPQLLGDRRVDAGHTDQPVPSGSVGGPARPASGPRQAREASLVVTCRTNKFRKNNYKWVAASSKSPRVARRALSPRVAAENVCKASAGMANKVEKPQLIADPEPKPRKPATSSKPGSAPSKYKWKASSPSASSSSSFRWQSEASSKDHASQLSPVLSRSPSGDRPAVGHSGLKPLSGETPLSAYKVKSRTKIIRRRSSTSLPGDKKSGTSPAATAKSHLSLRRRQALRGKSSPVLKKTPNKGLVQVTTHRLCRLPPSRAHLPTKEASSLHAVRTAPTSKVIKTRYRIVKKTPASPLSAPPFPLSLPSWRARRLSLSRSLVLNRLRPVASGGGKAQPGSPWWRSKGYRCIGGVLYKVSANKLSKTSGQPSDAGSRPLLRTGRLDPAGSCSRSLASRAVQRSLAIIRQARQRREKRKEYCMYYNRFGRCNRGERCPYIHDPEKVAVCTRFVRGTCKKTDGTCPFSHHVSKEKMPVCSYFLKGICSNSNCPYSHVYVSRKAEVCSDFLKGYCPLGAKCKKKHTLLCPDFARRGACPRGAQCQLLHRTQKRHSRRAATSPAPGPSDATARSRVSASHGPRKPSASQRPTRQTPSSAALTAAAVAAPPHCPGGSASPSSSKASSSSSSSSSPPASLDHEAPSLQEAALAAACSNRLCKLPSFISLQSSPSPGAQPRVRAPRAPLTKDSGKPLHIKPRL
For the molecule B5, the binding result (in assay [1]; in the assay with histatin 5 (human)) was “binds” throughout.
For the molecule DSHEKRHHGYRRKFHEKHHSHREFPFYGDYGSNYLYDN (peptide, UniProt P15515 20-57, serine phosphate at residue 2) [Histatin-1], the binding entry (in assay [1]; with histatin 5 (human)) was “binds” each time.

B6: Prolactin-inducible protein (protein, UniProt P12273 29-146)
chain: QDNTRKIIIKNFDIPKSVRPNDEVTAVLAVQTELKECMVVKTYLISSIPLQGAFNYKYTACLCDDNPKTFYWDFYTNRTVQIAAVVDVIRELGICPDDAAVIPIKNNRFYTIEILKVE
Turning to B6, the binding result (in assay [1]; with histatin 5 (human)) was “binds” each time.

B7: Long palate, lung and nasal epithelium carcinoma-associated protein 1 (protein, UniProt Q8TDL5 22-484)
chain: TLSPTAVLILGPKVIKEKLTQELKDHNATSILQQLPLLSAMREKPAGGIPVLGSLVNTVLKHIIWLKVITANILQLQVKPSANDQELLVKIPLDMVAGFNTPLVKTIVEFHMTTEAQATIRMDTSASGPTRLVLSDCATSHGSLRIQLLHKLSFLVNALAKQVMNLLVPSLPNLVKNQLCPVIEASFNGMYADLLQLVKVPISLSIDRLEFDLLYPAIKGDTIQLYLGAKLLDSQGKVTKWFNNSAASLTMPTLDNIPFSLIVSQDVVKAAVAAVLSPEEFMVLLDSVLPESAHRLKSSIGLINEKAADKLGSTQIVKILTQDTPEFFIDQGHAKVAQLIVLEVFPSSEALRPLFTLGIEASSEAQFYTKGDQLILNLNNISSDRIQLMNSGIGWFQPDVLKNIITEIIHSILLPNQNGKLRSGVPVSLVKALGFEAAESSLTKDALVLTPASLWKPSSPVSQ
With B7, the binding result (in assay [1]; in the assay with histatin 5 (human)) was “binds” in each case.

B8: Matrix Gla protein (protein, UniProt P08493 20-96)
chain: YESHESMESYELNPFINRRNANTFISPQQRWRAKVQERIRERSKPVHELNREACDDYRLCERYAMVYGYNAAYNRYF
With B8, the binding entry (in assay [1]; with histatin 5 (human)) was “binds” each time.

B9: Lysozyme C (P61626) (enzyme, UniProt P61626 19-148)
chain: KVFERCELARTLKRLGMDGYRGISLANWMCLAKWESGYNTRATNYNAGDRSTDYGIFQINSRYWCNDGKTPGAVNACHLSCSALLQDNIADAVACAKRVVRDPQGIRAWVAWRNRCQNRDVRQYVQGCGV
With B9, the binding result (in assay [1]; with histatin 5 (human)) was “binds” in each case.

B10: Lysozyme C (F8VV32) (enzyme, UniProt P61626 19-148)
chain: KVFERCELARTLKRLGMDGYRGISLANWMCLAKWESGYNTRATNYNAGDRSTDYGIFQINSRYWCNDGKTPGAVNACHLSCSALLQDNIADAVACAKRVVRDPQGIRAWVAWRNRCQNRDVRQYVQGCGV
For B10, the binding result (in assay [1]; with histatin 5 (human)) was “binds” throughout.

B11: Pancreatic adenocarcinoma upregulated factor (protein, UniProt Q96DA0 17-172)
chain: GKMYGPGGGKYFSTTEDYDHEITGLRVSVGLLLVKSVQVKLGDSWDVKLGALGGNTQEVTLQPGEYITKVFVAFQAFLRGMVMYTSKDRYFYFGKLDGQISSAYPSQEGQVLVGIYGQYQLLGIKSIGFEWNYPLEEPTTEPPVNLTYSANSPVGR
Regarding B11, the binding result (in assay [1]; with histatin 5 (human)) was “binds” in each case.
